Screening data, single-dose tests

Mtb cholesterol medium: 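Whole-cell growth test on Mycobacterium tuberculosis, read after 4 days in a medium based on cholesterol and the lipid DPPC; the read-out is not stated. Concentration: 50 µM. Direction is inferred from retests: higher values go with more growth inhibition. Size under these conditions: about 69,000 compounds, about 370 of them at 50% or above in at least one test.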
Mtb glucose medium: 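Growth of Mycobacterium tuberculosis over 3 days (7H9 medium with glucose and tyloxapol); the read-out is not stated. Concentration: 50 µM. Higher reads as more growth inhibition (inferred: compounds with an IC50 in retests scored well above the rest). Size under these conditions: about 69,000 compounds, about 760 of them at 50% or above in at least one test.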

Results are given as percent effect. How 0% and 100% were set is not recorded. Most values in the screen are low, and negative values occur. The compounds are a random part of those screened. Two or more numbers in one place are separate tests of the same structure; such repeats can differ widely.

structure	Mtb cholesterol medium	Mtb glucose medium
O=C(O)C(F)(F)F.[H][C@@]12CN(CC3CCOC3)C[C@]1([H])OCCN2c1cnccn1 (stereo partly drawn)	-0.3045	-21.2
CCc1nc(CNc2ccc(C(=O)NCc3ccco3)cc2C)no1	6.416	17.43 & 10.14
CC(C)(C)c1cn2nc(N3CCOC(Cn4cncn4)C3)sc2n1 (stereo not drawn)	-7.67	5.445
[H][C@@]12CCNCC1OCCN2C(=O)c1ccccc1 (stereo partly drawn)	-10.15	0.8979
[H][C@@]12CNCC[C@]1(O)CCN(C(=O)Cc1ccc(OC)cc1OC)C2	-8.531	5.463
CCc1ncc2c(n1)CN(C(=O)CC(C)NC(C)=O)C2 (stereo not drawn)	8.502	4.544 & -2.91
O=C(c1cn2cc(Cl)ccc2n1)N1CCC(CCn2cccn2)CC1	-27.1	-23.15
CS(=O)(=O)c1cccc(S(=O)(=O)NC(=O)c2cscn2)c1	12.63	2.905 & 6.021
O=C(O)C(F)(F)F.c1cnc(N2CCC3(CCCN(Cc4ccncc4)C3)CC2)nc1	-13.89	31.77
O=C(O)C(F)(F)F.[H][C@@]12CCCO[C@]1([H])[C@H](NS(C)(=O)=O)CN(Cc1ccc(OC)cc1)C2	22.37	1.691
CCCN1CCC(NC(=O)Nc2ccc(OC)c(OC)c2)CC1	-17.61 & -2.805	14.08
O=C(NCCc1nccs1)C1CCCN(Cc2ccco2)C1 (stereo not drawn)	-5.454 & 4.846	-24.16
CN(CC(=O)Nc1cc(-c2cc(Cl)cc(Cl)c2)[nH]n1)S(C)(=O)=O	27.45	22.79
CCN(CCn1cccn1)Cc1nc(-c2cc(F)ccc2F)oc1C	-22.45	-11.52
O=C(O)C(F)(F)F.[H][C@@]12CCCO[C@]1([H])[C@@H](OC)CN2C(=O)c1cccnc1	-8.248 & -1.954	-2.025
Cc1cc(NC(=O)C(C)Cn2cc(Br)cn2)no1 (stereo not drawn)	1.244	19.82
Cn1cccc1C(=O)N1CCC2(CC1)CN(c1ccsc1)C(=O)CO2	-14.68 & -3.617	-27.1
Cc1nnc(SCCCNC(=O)Nc2ccc3c(c2)OCO3)s1	-18.57	3.704 & -23.97
COCC(=O)N1CC[C@@H](N2CCN(C)CC2)[C@@H]1Cc1ccccc1	5.213	-14.62
CN(CC(=O)Nc1ccccc1)C(=O)CN(C)c1ccc(Cl)cn1	-22.29	-1.364 & 4.692
O=C(O)C(F)(F)F.[H][C@]12CN(Cc3ccccc3F)C[C@@]1([H])OCCN(C(C)=O)C2	-12.04	1.009
COCCc1noc(CN2CC(C)(c3ccccc3)CCC2=O)n1 (stereo not drawn)	-7.527 & -2.779	-13.79
CCn1cc(CN2CCCN(C(=O)C3=NN(C)C(=O)CC3)CC2)cn1	-10.18	-7.72
O=C(O)[C@@H]1CN(C(=O)c2ccc3[nH]nnc3c2)C[C@H]1c1cccc(F)c1	-1.649	16.91
CC(C)C1SCC(=O)Nc2c1c(O)nn2C1CCCCC1 (stereo not drawn)	-1.711	10.93
[H][C@@]12CCN(Cc3ccc4c(c3)OCO4)C[C@]1(c1nnc(C)o1)CCO2	-14.12	4.38
CC(C)c1nn(C)c(Cl)c1CNCc1cccnc1N(C)C.Cl	-5.66	-9.272
O=C(c1ccc2c(c1)[nH]c(=O)n2C1CCCC1)N1CCCSCC1	-9.307	-24.06
COCCCN1CC2(CCCCN2C(=O)C2CCCCC2)CC1=O (stereo not drawn)	-2.296	-6.708 & -18.85
CCc1[nH]ncc1C(=O)N1CCCC(n2nc(C)nc2C)C1 (stereo not drawn)	11.23	-35.98
COCc1nc(CNc2cc(C)nc(N3CCCCC3)n2)no1	-22.4	-3.062 & -30.33
O=C(CN1CC(c2ccccc2)CC1=O)NCc1cc2n(n1)CCNC2 (stereo not drawn)	22.27	15.29
c1cnn(CC2CCCCN2Cc2noc(C3CC3)n2)c1 (stereo not drawn)	17.91	10.92
Cc1cnn(CC2CCCN2Cc2coc(-c3cccs3)n2)c1 (stereo not drawn)	-2.773	4.171 & 14.04
CN1CCN(C2CCN(Cc3cn4ccccc4n3)CC2)C1=O	-28.19	-38.19
CC(=O)c1cccc(NC(=O)CN2CCCCC2C(=O)N2CCCC2)c1 (stereo not drawn)	-10.59	0.8658 & -15.35
O=C(O)C(F)(F)F.[H][C@@]12CCN(CC(=O)NC)C[C@]1([H])CN(C(=O)c1ccc(C)nc1)C2	14.42	16.44
Cc1nn(CCNC(=O)c2cc(C3CC3)[nH]n2)c(C)c1Cl	-6.719	6.702
CCc1oc(C(=O)NCCc2nc(C(=O)O)cs2)cc1CN1CCCC1	11.64	27.37
CC(C)=CCCC(C)CN1CCC(n2cc(C(C)(C)O)nn2)CC1 (stereo not drawn)	-7.07	26.54
CN(Cc1ccc(C(=O)O)cc1)C(=O)c1sccc1OC(F)F	-0.5285	-23.9
CS(=O)(=O)CCCSc1cccc(C#N)c1	13.94	5.009 & 9.088
CCNc1ccnc(N2CCN(Cc3ncccc3C)CC2)n1	-7.035	15.84
O=C(CN1C(=O)c2ccccc2CS1(=O)=O)c1ccccc1	15.6	24.03 & 5.163
CC1c2ncc(COCC3CCOCC3)n2CCN1Cc1cccnc1.O=C(O)C(F)(F)F.O=C(O)C(F)(F)F (stereo not drawn)	-6.007	-12.63 & -17.85
Cc1ccc(CCNC(=O)c2cccnc2)o1	-4.32	-28.6
CCCn1cc(C(=O)N[C@H]2CC[C@H](n3cnnc3)CC2)c(C)n1	-6.833 & -1.677	-8.515
CC1CN(C)CCN1C(=O)c1cccn1Cc1cccnc1 (stereo not drawn)	-26.35	-45.41 & -3.086
Cc1cc(CN2CCOC(CN(C)c3cccnn3)C2)no1 (stereo not drawn)	0.3229	-2.801
CCC(CO)N(Cc1ccccn1)Cc1c[nH]nc1-c1ccc(F)cc1 (stereo not drawn)	3.323	7.725
O=C(O)C(F)(F)F.[H][C@@]12CCN(Cc3cnn(C)c3)[C@@]1([H])CCN2C(=O)Cc1cccc(F)c1	0.1163 & -8.065	6.553
CN1CCN(CC(NCc2cccc(O)c2)c2ccccc2)CC1 (stereo not drawn)	-15.67	-3.572
O=C(O)C(F)(F)F.O=C(O)C(F)(F)F.O=C(O)C(F)(F)F.[H][C@]12CC(Cn3cccn3)N(C)[C@@]1([H])CCN(Cc1ccc(C)s1)C2 (stereo partly drawn)	-40.17	-33.67
CC(CNC(=O)c1cnccn1)Oc1ccc(F)cc1 (stereo not drawn)	29.78	37.96
CN(C)c1nc2n(c(=O)n1)CCN2C(=O)Nc1ccccc1	-0.3074	5.526
CCC(C)[C@H](N)c1nnc(SCC(=O)Nc2cc(C)ccc2C)o1.Cl (stereo partly drawn)	-2.527	-5.637
Cc1ccc([C@H]2CN(C(C)C)C[C@@H]2NS(=O)(=O)N2CCOCC2)o1	-3.339 & 0.1063	-16.78
O=C(O)C(F)(F)F.[H][C@@]12CCN(Cc3cn(C)c4ccccc34)[C@]1([H])CC[C@@H](C(=O)NC)O2	-26.12	-12.28
CN(C)CCOc1ccc(CNC(=O)c2cccc(Cl)c2Cl)cc1	-16.27	-7.579
CCS(=O)(=O)N1CCN(CC2CC2)c2ncccc2C1	-6.546	-19.72
CCn1cc(S(=O)(=O)NCC2(N3CCOCC3)CCCCC2)c(C)n1	-12.38	-32.12
Cc1cccc(N2CCC(N3CCCC4(CNC(=O)O4)C3)CC2)c1C (stereo not drawn)	22.11	22.44
Cc1cccc(C(=O)NCCNS(=O)(=O)c2cccs2)c1C	0.1721	4.901 & -0.2439
O=C(O)C(F)(F)F.O=C(O)C(F)(F)F.c1cncc(C2COC3(CCN(Cc4nccs4)CC3)C2)c1 (stereo not drawn)	-3.12	27.68
Cc1c[nH]nc1C1CCCN1Cc1ccncc1 (stereo not drawn)	-3.097	8.42
COc1ccc(OC)c(C2CCN(C(=O)C3CCN(C(C)C)CC3)C2)c1 (stereo not drawn)	14.38	4.208
Cc1nc(C2CCCN2CC(=O)Nc2c(C)nn(C)c2C)no1 (stereo not drawn)	-1.93 & 2.362	-8.788
CC(=O)NCCNC(=O)c1cnc(C(C)(C)C)s1	8.195	-8.079
Cc1nc(NC(=O)NCCCN2CCC(C(N)=O)CC2)sc1C	1.317	18.08
CCN(CC)C1(Cc2cc(COC)on2)COC1	-5.267	1.718 & 2.146
O=C(Cc1csc(-c2ccoc2)n1)NCCCN1CCCCC1	-31.07 & -13.15	14.05
CC(=O)N1CC[C@H](c2nc3cc(F)ccc3o2)C1	-10.84	-2.159 & -15.83
CCc1ccc(CCC(=O)N2CCC(=O)Nc3cccnc32)cc1	-10.29	-18.45 & -2.211
CN1CCC(Nc2cc(Cl)ccc2OCC(F)(F)F)C1=O (stereo not drawn)	-6.716	-13.32
Cc1ccc(Cc2cnc(C3CCNCC3)cn2)cc1.Cl	-11.8	2.922

Some entries from above, unchanged:

| structure | Mtb cholesterol medium | Mtb glucose medium |
|---|---|---|
| `Cc1ccc(CCNC(=O)c2cccnc2)o1` | -4.32 | -28.6 |
| `CS(=O)(=O)CCCSc1cccc(C#N)c1` | 13.94 | 5.009 & 9.088 |
| `O=C(c1ccc2c(c1)[nH]c(=O)n2C1CCCC1)N1CCCSCC1` | -9.307 | -24.06 |
| `[H][C@@]12CCN(Cc3ccc4c(c3)OCO4)C[C@]1(c1nnc(C)o1)CCO2` | -14.12 | 4.38 |
| `O=C(O)C(F)(F)F.[H][C@@]12CCCO[C@]1([H])[C@@H](OC)CN2C(=O)c1cccnc1` | -8.248 & -1.954 | -2.025 |

Data taken from ChEMBL document CHEMBL3988442, “University of Dundee, Small-Polar-MMV Screening Library” (2021).